Measured values from paper PMC10284917.
Results are given in words; binding and its absence hold for the method and conditions named. Binding seen in cells or lysates may run through a third protein. These calls come from enrichment with a bait or labelling near it, and not all partners need be listed.

Protein sequences, listed by entry. Tags and fused reporters are not part of them.
UniProt Q27J81: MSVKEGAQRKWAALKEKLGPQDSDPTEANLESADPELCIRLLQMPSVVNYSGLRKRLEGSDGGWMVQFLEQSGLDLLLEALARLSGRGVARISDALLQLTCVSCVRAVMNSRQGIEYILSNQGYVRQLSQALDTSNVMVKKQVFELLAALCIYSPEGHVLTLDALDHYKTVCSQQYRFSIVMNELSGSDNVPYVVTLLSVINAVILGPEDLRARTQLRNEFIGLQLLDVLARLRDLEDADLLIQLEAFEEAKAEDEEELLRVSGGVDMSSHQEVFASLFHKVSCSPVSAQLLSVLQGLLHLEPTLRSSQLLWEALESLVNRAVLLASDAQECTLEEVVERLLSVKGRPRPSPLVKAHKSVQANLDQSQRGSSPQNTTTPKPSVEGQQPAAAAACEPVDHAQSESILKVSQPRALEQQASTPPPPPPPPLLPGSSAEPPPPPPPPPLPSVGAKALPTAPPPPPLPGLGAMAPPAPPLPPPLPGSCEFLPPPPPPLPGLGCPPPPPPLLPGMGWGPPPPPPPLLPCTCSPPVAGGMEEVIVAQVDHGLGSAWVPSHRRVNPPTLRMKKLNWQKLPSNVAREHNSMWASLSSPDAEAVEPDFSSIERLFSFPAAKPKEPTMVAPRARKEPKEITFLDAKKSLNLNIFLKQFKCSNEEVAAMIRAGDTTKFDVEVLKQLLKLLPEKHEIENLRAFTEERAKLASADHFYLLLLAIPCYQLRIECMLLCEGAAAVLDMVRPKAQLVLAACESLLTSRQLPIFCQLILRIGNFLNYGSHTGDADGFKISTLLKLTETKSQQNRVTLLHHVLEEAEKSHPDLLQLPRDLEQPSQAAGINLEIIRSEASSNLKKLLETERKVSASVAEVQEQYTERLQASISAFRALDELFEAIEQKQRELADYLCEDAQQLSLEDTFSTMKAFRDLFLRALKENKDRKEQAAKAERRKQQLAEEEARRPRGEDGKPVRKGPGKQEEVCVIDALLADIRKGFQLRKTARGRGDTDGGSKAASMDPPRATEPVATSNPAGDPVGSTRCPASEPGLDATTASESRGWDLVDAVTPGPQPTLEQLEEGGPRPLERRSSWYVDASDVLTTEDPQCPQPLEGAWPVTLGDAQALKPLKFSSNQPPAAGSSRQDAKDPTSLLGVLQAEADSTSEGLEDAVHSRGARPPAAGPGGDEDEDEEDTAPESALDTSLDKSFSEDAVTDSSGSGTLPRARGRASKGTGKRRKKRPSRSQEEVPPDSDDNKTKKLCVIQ

B1: F-box/LRR-repeat protein 18 (FBXL18) (protein, UniProt Q96ME1 1-718)
chain: MASSGEDISNDDDDMHPAAAGMADGVHLLGFSDEILLHILSHVPSTDLILNVRRTCRKLAALCLDKSLIHTVLLQKDYQASEDKVRQLVKEIGREIQQLSMAGCYWLPGSTVEHVARCRSLVKVNLSGCHLTSLRLSKMLSALQHLRSLAIDVSPGFDASQLSSECKATLSRVRELKQTLFTPSYGVVPCCTSLEKLLLYFEILDRTREGAILSGQLMVGQSNVPHYQNLRVFYARLAPGYINQEVVRLYLAVLSDRTPQNLHAFLISVPGSFAESGATKNLLDSMARNVVLDALQLPKSWLNGSSLLQHMKFNNPFYFSFSRCTLSGGHLIQQVINGGKDLRSLASLNLSGCVHCLSPDSLLRKAEDDIDSSILETLVASCCNLRHLNLSAAHHHSSEGLGRHLCQLLARLRHLRSLSLPVCSVADSAPRADRAPAQPAMHAVPRGFGKKVRVGVQSCPSPFSGQACPQPSSVFWSLLKNLPFLEHLELIGSNFSSAMPRNEPAIRNSLPPCSRAQSVGDSEVAAIGQLAFLRHLTLAQLPSVLTGSGLVNIGLQCQQLRSLSLANLGMMGKVVYMPALSDMLKHCKRLRDLRLEQPYFSANAQFFQALSQCPSLQRLCLVSRSGTLQPDAVLAFMARCLQVVMCHLFTGESLATCKSLQQSLLRSFQAERPALNVVIFPLLHEGLTDVIRDVPLVHLDEITLFKSRVAEEPPNLWW
B2: FBXO50 (protein, UniProt Q6ZVX7 1-275)
chain: MEEVREGHALGGGMEADGPASLQELPPSPRSPSPPPSPPPLPSPPSLPSPAAPEAPELPEPAQPSEAHARQLLLEEWGPLSGGLELPQRLTWKLLLLRRPLYRNLLRSPNPEGINIYEPAPPTGPTQRPLETLGNFRGWYIRTEKLQQNQSWTVKQQCVDLLAEGLWEELLDDEQPAITVMDWFEDSRLDACVYELHVWLLAADRRTVIAQHHVAPRTSGRGPPGRWVQVSHVFRHYGPGVRFIHFLHKAKNRMEPGGLRRTRVTDSSVSVQLRE
B3: FBXO3 (protein, UniProt Q9UK99 1-471)
chain: MAAMETETAPLTLESLPTDPLLLILSFLDYRDLINCCYVSRRLSQLSSHDPLWRRHCKKYWLISEEEKTQKNQCWKSLFIDTYSDVGRYIDHYAAIKKAWDDLKKYLEPRCPRMVLSLKEGAREEDLDAVEAQIGCKLPDDYRCSYRIHNGQKLVVPGLLGSMALSNHYRSEDLLDVDTAAGGFQQRQGLKYCLPLTFCIHTGLSQYIAVEAAEGRNKNEVFYQCPDQMARNPAAIDMFIIGATFTDWFTSYVKNVVSGGFPIIRDQIFRYVHDPECVATTGDITVSVSTSFLPELSSVHPPHYFFTYRIRIEMSKDALPEKACQLDSRYWRITNAKGDVEEVQGPGVVGEFPIISPGRVYEYTSCTTFSTTSGYMEGYYTFHFLYFKDKIFNVAIPRFHMACPTFRVSIARLEMGPDEYEEMEEEEEEEEEEDEDDDSADMDESDEDDEEERRRRVFDVPIRRRRCSRLF
B4: MCM3 (protein, UniProt P25205 1-808)
chain: MAGTVVLDDVELREAQRDYLDFLDDEEDQGIYQSKVRELISDNQYRLIVNVNDLRRKNEKRANRLLNNAFEELVAFQRALKDFVASIDATYAKQYEEFYVGLEGSFGSKHVSPRTLTSCFLSCVVCVEGIVTKCSLVRPKVVRSVHYCPATKKTIERRYSDLTTLVAFPSSSVYPTKDEENNPLETEYGLSVYKDHQTITIQEMPEKAPAGQLPRSVDVILDDDLVDKAKPGDRVQVVGTYRCLPGKKGGYTSGTFRTVLIACNVKQMSKDAQPSFSAEDIAKIKKFSKTRSKDIFDQLAKSLAPSIHGHDYVKKAILCLLLGGVERDLENGSHIRGDINILLIGDPSVAKSQLLRYVLCTAPRAIPTTGRGSSGVGLTAAVTTDQETGERRLEAGAMVLADRGVVCIDEFDKMSDMDRTAIHEVMEQGRVTIAKAGIHARLNARCSVLAAANPVYGRYDQYKTPMENIGLQDSLLSRFDLLFIMLDQMDPEQDREISDHVLRMHRYRAPGEQDGDAMPLGSAVDILATDDPNFSQEDQQDTQIYEKHDNLLHGTKKKKEKMVSAAFMKKYIHVAKIIKPVLTQESATYIAEEYSRLRSQDSMSSDTARTSPVTARTLETLIRLATAHAKARMSKTVDLQDAEEAVELVQYAYFKKVLEKEKKRKKRSEDESETEDEEEKSQEDQEQKRKRRKTRQPDAKDGDSYDPYDFSDTEEEMPQVHTPKTADSQETKESQKVELSESRLKAFKVALLDVFREAHAQSIGMNRLTESINRDSEEPFSSVEIQAALSKMQDDNQVMVSEGIIFLI
B5: FBXL20 (protein, UniProt Q96IG2 1-436)
chain: MRRDVNGVTKSRFEMFSNSDEAVINKKLPKELLLRIFSFLDVVTLCRCAQVSRAWNVLALDGSNWQRIDLFDFQRDIEGRVVENISKRCGGFLRKLSLRGCLGVGDNALRTFAQNCRNIEVLNLNGCTKTTDATCTSLSKFCSKLRHLDLASCTSITNMSLKALSEGCPLLEQLNISWCDQVTKDGIQALVRGCGGLKALFLKGCTQLEDEALKYIGAHCPELVTLNLQTCLQITDEGLITICRGCHKLQSLCASGCSNITDAILNALGQNCPRLRILEVARCSQLTDVGFTTLARNCHELEKMDLEECVQITDSTLIQLSIHCPRLQVLSLSHCELITDDGIRHLGNGACAHDQLEVIELDNCPLITDASLEHLKSCHSLERIELYDCQQITRAGIKRLRTHLPNIKVHAYFAPVTPPPSVGGSRQRFCRCCIIL

target: FLAG-INF2 (INF2-CAXX, ER-localized inverted formin 2) (UniProt Q27J81); assay: affinity purification with mass spectrometry; FLAG-INF2 protein complex from HEK-293T cells; anti-FLAG M2 agarose beads, eluted with FLAG peptide, SDS-PAGE, Coomassie Blue staining, mass spectrometry

binding, binds:
B1
B2
B3
B4
B5
